Measurements from patent publication USRE47428E1, “Modulators of methyl modifying enzymes, compositions and uses thereof” (Constellation Pharmaceuticals, Inc., priority 2013, dated 2019).
For at least one compound, name, drawing or mass did not settle the structure.

Tested on: H3K27me3 mark in HeLa cells
Experiment: H3K27me3 Alpha Hela Assay (AlphaLISA)
Assay type: cell-based
Details: 72 hrs incubation
Method: H3K27me3 Alpha Hela Assay (AlphaLISA).
Ten different doses of each test compound (in a series of 3-fold dilutions) were plated in duplicate 384-well tissue culture treated plates (Catalog #781080; Greiner Bio One; Monroe, N.C.). Hela cells grown in culture were trypsinized and counted using a Countess® cell counter (Catalog #C10281; Life Technologies, Grand Island, N.Y.). Cell were diluted to 67,000 cells per mL in 10% DMEM (Catalog #10569-010 Life Technologies, Grand Island, N.Y.) and 15 μL (1,000 cells) were plated into each well using the Biotek MicroFlo™ Select Dispenser (BioTek Instruments, Inc. Vermont, USA),) of the 384-well plate. Plates were incubated at 37° C./5% CO2 for 72 hrs. One of the duplicate plates was processed for HeLa assay and the other for viability.
To the plate processed for AlphaLISA was added 5 μL per well Cell-Histone Lysis buffer (1×) (Catalog #AL009F1 Perkin Elmer; Waltham, Mass.) and the plate was incubated at RT for 30 minutes on a plate shaker with low speed (Model #4625-Q Thermo Scientific; Waltham, Mass.). […] The plates were then read using an EnVision-Alpha Reader (model #2104 Perkin Elmer; Waltham, Mass.).
Data from both assays was analyzed using Assay Assistant (Constellation Pharmaceuticals In-house product) and Activity Base (IDBS Ltd, Surrey, UK) template. […] Readout of DMSO wells were used to normalize the data. […]

COc1cc(C)[nH]c(=O)c1CNC(=O)c1c(C)n(C(C)C2CCN(CC(=O)O)CC2)c2ccccc12 (single isomer, unassigned) [Compound 364, (R or S)-2-(4-(1-(3-((4-methoxy-6-methyl-2-oxo-1,2-dihydropyridin-3-yl)methylcarbamoyl)-2-methyl-1H-indol-1-yl)ethyl)piperidin-1-yl) acetic acid]
H3K27me3 Alpha HeLa (EC50): *(3.33 μM)
